Earlier results in patent publication US20020041888A1, “Method and composition for treating cancer by administration of apoptosis-inducing chemotherapeutic agents” (priority 2000, published 2002).

Settings: without solubilizing carrier

CC(=O)O[C@H]1C(=O)[C@@]2(C)[C@H]([C@H](OC(=O)c3ccccc3)[C@]3(O)C[C@H](OC(=O)[C@H](O)[C@@H](NC(=O)c4ccccc4)c4ccccc4)C(C)=C1C3(C)C)[C@]1(OC(C)=O)CO[C@@H]1C[C@@H]2O [paclitaxel, Paclitaxel]
water solubility: substantially water insoluble
